# Earlier results as cited in patent US20160074480A1, “INNOVATIVE METHODS OF TREATMENTING TUBERCULOSIS” (priority 2015, published 2016).
# For at least one compound, name, drawing or mass did not settle the structure.
# System: TB bacteria
# Settings: DFO treated cultures; cited from earlier work
smiles,measurement,value
"CC(=O)N(O)CCCCCNC(=O)CCC(=O)N(O)CCCCCNC(=O)CCC(=O)N(O)CCCCCN [DFO, deferoxamine]",effect on killing by a vitamin C-induced Fenton reaction,reverse the killing of tuberculosis bacteria
